Measured values from the supplement of paper PMC6411743.
± gives the standard deviation of the averaged measurements. This is a selection; strong and weak results do not stand in their true shares. Small differences around the control level are noise.

Amino acid sequences for entries named in this document (tags omitted). A change or cut given only in a name is not applied to a line headed by its entry.
UniProt O95168, whole entry: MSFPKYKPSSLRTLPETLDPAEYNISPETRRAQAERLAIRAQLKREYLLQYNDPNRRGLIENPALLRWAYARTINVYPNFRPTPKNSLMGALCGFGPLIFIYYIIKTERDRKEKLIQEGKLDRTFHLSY
UniProt A6NJ78: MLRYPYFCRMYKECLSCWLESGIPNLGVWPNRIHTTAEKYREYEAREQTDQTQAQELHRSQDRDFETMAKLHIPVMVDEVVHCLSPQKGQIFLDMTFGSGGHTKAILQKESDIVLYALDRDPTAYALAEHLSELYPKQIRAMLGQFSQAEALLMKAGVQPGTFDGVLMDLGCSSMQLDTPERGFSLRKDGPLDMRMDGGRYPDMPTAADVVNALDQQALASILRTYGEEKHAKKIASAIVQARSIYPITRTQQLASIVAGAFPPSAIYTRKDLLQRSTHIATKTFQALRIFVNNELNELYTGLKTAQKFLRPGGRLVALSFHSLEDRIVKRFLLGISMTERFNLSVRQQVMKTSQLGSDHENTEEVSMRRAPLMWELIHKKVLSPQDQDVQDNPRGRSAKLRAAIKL
UniProt Q9Y618, whole entry: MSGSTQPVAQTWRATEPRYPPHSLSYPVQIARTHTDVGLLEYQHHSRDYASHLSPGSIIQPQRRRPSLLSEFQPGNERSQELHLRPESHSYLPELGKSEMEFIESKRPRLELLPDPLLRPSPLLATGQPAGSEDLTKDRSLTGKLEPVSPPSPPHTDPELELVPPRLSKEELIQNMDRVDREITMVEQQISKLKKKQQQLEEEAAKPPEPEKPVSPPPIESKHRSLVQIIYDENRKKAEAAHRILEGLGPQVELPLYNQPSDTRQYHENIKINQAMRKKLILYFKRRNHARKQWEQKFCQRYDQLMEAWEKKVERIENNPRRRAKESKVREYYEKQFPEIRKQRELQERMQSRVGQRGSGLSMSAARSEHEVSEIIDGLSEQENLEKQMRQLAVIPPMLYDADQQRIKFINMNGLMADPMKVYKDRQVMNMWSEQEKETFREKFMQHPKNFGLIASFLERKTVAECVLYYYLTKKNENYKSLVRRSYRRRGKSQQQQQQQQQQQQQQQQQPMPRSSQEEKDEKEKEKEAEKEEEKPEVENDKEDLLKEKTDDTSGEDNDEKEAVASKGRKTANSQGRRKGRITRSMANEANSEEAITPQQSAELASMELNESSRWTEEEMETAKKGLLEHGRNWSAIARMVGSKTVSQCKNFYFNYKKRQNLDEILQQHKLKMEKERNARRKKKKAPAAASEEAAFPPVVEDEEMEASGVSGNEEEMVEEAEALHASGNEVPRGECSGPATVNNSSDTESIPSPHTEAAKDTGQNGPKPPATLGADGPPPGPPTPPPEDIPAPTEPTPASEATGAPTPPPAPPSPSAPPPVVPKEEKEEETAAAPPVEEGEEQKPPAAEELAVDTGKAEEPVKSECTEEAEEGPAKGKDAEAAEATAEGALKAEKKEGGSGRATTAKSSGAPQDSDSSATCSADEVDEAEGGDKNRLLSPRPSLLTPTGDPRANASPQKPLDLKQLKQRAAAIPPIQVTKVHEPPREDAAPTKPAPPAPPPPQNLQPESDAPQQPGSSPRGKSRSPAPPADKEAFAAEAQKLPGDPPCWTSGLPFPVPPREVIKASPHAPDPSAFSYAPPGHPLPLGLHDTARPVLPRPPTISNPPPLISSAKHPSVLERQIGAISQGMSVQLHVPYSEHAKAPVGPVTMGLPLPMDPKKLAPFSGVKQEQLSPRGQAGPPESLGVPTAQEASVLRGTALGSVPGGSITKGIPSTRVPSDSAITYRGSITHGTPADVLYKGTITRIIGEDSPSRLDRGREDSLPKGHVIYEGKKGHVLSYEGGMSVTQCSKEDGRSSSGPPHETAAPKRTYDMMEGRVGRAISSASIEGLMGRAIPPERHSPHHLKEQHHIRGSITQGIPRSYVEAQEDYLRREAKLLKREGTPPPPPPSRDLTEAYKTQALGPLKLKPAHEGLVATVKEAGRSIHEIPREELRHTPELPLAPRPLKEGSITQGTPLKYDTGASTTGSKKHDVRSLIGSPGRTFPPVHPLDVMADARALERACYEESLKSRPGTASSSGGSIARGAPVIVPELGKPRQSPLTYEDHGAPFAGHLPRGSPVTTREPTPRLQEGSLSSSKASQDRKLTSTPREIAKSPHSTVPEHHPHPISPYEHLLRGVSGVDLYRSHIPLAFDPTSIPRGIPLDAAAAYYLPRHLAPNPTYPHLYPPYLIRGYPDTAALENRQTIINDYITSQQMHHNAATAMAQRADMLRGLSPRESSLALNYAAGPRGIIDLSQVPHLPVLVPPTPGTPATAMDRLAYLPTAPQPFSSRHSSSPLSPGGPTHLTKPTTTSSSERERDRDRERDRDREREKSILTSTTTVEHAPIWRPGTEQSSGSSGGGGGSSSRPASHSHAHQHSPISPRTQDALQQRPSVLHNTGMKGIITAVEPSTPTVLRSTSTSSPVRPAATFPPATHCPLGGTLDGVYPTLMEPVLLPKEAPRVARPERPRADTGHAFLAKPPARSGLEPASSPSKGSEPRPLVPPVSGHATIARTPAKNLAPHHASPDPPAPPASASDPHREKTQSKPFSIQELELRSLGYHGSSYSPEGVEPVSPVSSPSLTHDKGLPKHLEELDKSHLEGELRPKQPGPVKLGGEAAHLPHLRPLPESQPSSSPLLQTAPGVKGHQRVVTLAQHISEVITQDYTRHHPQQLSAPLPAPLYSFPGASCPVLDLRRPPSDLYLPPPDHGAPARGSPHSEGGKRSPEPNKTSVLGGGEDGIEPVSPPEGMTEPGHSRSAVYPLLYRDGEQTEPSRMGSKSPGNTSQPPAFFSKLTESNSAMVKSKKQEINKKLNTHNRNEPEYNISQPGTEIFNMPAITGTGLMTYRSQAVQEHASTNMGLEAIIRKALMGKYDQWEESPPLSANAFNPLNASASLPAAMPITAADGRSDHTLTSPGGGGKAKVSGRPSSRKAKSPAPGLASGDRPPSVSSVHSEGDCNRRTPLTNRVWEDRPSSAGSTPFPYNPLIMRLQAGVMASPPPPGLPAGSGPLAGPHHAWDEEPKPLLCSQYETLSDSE
UniProt P99999: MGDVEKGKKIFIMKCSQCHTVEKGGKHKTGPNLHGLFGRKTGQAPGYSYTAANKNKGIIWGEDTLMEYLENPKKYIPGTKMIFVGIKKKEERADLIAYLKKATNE
UniProt Q9NYZ1: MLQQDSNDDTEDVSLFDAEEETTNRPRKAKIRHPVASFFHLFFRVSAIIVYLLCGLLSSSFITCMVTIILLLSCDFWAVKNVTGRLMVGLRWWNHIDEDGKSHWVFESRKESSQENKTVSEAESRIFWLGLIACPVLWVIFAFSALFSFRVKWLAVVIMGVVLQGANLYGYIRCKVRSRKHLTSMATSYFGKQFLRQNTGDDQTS
UniProt A1A4S6: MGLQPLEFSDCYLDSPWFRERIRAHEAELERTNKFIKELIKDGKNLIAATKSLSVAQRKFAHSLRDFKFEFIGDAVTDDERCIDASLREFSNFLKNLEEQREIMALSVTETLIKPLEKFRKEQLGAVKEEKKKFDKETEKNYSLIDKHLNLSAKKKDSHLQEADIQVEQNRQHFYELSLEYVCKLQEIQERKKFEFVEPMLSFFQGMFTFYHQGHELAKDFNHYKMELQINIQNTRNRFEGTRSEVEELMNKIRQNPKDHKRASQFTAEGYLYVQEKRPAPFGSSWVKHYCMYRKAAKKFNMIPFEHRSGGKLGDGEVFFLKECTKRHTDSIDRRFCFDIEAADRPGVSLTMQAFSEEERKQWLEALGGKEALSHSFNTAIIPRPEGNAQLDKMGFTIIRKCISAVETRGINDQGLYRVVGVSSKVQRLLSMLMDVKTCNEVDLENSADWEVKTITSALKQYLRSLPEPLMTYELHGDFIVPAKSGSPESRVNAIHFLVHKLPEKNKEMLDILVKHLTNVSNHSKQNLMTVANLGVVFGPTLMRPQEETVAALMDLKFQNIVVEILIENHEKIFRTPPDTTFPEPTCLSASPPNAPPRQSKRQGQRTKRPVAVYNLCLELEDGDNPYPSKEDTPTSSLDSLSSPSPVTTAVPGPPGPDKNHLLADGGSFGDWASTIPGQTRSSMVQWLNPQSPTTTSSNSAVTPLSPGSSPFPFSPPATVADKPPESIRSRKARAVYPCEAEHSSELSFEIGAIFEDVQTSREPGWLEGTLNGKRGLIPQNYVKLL
UniProt Q5JSL3: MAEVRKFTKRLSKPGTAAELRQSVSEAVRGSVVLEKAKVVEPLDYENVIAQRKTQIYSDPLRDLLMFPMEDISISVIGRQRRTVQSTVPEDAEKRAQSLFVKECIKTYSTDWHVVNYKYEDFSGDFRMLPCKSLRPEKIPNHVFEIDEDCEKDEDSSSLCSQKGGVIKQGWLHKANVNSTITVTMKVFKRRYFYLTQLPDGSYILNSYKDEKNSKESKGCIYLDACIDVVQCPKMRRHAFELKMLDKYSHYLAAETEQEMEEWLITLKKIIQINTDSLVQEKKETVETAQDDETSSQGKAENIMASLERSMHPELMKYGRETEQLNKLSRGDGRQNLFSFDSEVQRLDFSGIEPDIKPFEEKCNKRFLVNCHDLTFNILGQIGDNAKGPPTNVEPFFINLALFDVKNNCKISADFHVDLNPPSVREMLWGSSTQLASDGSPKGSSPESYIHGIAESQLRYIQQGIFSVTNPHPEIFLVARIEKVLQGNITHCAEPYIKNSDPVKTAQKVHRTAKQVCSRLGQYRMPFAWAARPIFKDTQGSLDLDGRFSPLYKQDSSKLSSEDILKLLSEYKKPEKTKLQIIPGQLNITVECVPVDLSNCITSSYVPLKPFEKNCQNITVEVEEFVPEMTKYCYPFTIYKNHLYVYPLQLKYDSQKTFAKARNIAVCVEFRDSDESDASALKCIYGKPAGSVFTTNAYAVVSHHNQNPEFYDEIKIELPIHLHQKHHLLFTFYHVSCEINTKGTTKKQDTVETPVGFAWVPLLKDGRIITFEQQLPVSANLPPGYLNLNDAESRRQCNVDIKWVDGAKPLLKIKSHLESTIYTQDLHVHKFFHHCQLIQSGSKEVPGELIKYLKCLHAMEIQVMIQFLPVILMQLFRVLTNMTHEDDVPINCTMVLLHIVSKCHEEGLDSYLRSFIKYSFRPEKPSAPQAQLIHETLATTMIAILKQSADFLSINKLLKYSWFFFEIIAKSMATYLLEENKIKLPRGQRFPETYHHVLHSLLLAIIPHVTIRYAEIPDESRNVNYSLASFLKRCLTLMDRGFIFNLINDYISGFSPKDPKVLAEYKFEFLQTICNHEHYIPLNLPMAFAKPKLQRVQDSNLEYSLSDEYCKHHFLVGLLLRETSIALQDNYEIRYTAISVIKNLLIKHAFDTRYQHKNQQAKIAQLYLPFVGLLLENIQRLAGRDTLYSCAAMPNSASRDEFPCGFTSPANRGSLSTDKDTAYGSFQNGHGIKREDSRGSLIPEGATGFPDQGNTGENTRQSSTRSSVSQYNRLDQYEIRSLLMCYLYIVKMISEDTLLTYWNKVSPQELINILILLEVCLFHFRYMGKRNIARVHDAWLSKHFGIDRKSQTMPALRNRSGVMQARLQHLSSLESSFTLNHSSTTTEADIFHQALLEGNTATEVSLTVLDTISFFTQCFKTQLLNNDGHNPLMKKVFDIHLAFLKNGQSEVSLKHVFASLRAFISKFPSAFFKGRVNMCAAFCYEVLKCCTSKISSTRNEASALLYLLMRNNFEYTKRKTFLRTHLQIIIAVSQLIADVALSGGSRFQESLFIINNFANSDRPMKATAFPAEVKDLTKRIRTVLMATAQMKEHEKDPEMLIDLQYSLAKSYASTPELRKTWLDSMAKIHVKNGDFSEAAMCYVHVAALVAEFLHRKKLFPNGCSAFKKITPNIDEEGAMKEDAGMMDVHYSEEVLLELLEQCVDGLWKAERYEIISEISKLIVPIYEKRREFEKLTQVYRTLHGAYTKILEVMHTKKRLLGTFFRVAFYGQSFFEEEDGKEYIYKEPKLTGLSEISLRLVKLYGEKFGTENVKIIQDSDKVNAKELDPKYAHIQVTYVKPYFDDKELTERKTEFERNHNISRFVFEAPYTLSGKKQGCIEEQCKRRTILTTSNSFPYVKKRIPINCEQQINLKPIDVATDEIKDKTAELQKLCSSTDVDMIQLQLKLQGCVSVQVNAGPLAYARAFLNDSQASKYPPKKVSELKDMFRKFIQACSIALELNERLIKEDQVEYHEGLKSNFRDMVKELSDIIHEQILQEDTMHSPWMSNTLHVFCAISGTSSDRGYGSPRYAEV

Compound: Nc1ncnc2c1ncn2[C@@H]1O[C@H](COP(=O)(O)OP(=O)(O)OP(=O)(O)O)[C@@H](O)[C@H]1O [adenosine triphosphate]
Assay: NP40-soluble protein abundance relative to vehicle (solubility fold change) (ratio); higher = more soluble protein in presence of ATP
In short: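 Eight concentrations, 0.1 to 10 mM, were tested on Jurkat crude lysate for 10 min at room temperature and then 3 min at 37 °C, in three independent experiments. The lysate was solubilised with 0.8% NP40 and benzonase, ultracentrifuged, and the supernatant TMT-labelled for LC-MS/MS. Each value is the fold change against the detergent-processed vehicle in its own replicate, from vsn-normalised intensities.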

Target	NP40-soluble protein abundance (concentration: 0.1mM)	NP40-soluble protein abundance (concentration: 0.5mM)
A6NF51 and related entries (UniProt O95861)	0.989 ± 0.037	0.993 ± 0.017
B9EGE7 and related entries (UniProt Q8TCN5)	0.919 ± 0.18	0.906 ± 0.092
A0A0U1RRM6|Q8N8S7 and related entries (UniProt Q8N8S7)	1.01 ± 0.055	0.992 ± 0.078
B3KRD8 and related entries (UniProt O76054)	1.04 ± 0.12	1.05 ± 0.14
A2A274 and related entries (UniProt Q99798)	1.07 ± 0.068	1.05 ± 0.065
A0A0G2JNW7|Q9Y666 (UniProt Q9Y666)	0.982 ± 0.015	0.982 ± 0.017
D6REX3 and related entries (UniProt O94979)	1.01 ± 0.048	0.994 ± 0.031
C9JXQ9 and related entries (UniProt O95168)	0.937 ± 0.042	0.815 ± 0.11
B1ANH0 and related entries (UniProt Q16774)	0.964 ± 0.017	0.991 ± 0.022
B5MCU0 and related entries (UniProt Q9Y2K5)	1.08 ± 0.013	0.99 ± 0.053
B0QYS6 and related entries (UniProt P19484)	1.02 ± 0.021	0.888 ± 0.11
A6NMQ3 and related entries (UniProt O43768)	1.03 ± 0.16	0.921 ± 0.046
UniProt A6NJ78	0.973 ± 0.056	0.938 ± 0.14
A8MTY9 and related entries (UniProt O14972)	1.11 ± 0.13	1.07 ± 0.04
UniProt A9UHW6 and related entries	0.923 ± 0.091	0.897 ± 0.11
C9J0Q5 and related entries (UniProt Q9Y618)	0.979 ± 0.06	0.968 ± 0.053
B4DR80 and related entries (UniProt Q9Y6E0)	1.04 ± 0.068	1.01 ± 0.039
C9JFR7 and related entries (UniProt P99999)	0.987 ± 0.091	0.934 ± 0.14
C9JF66 and related entries (UniProt Q6PIZ9)	0.97 ± 0.052	0.956 ± 0.088
B4DJL6 and related entries (UniProt Q96SY0)	0.983 ± 0.031	1.03 ± 0.018

Target	NP40-soluble protein abundance (concentration: 0.1mM)	NP40-soluble protein abundance (concentration: 0.5mM)
C9JIF9 and related entries (UniProt P13798)	1.02 ± 0.068	1.01 ± 0.042
B7WPL0 and related entries (UniProt Q9NVN3)	1 ± 0.022	0.996 ± 0.048
A6NHB5 and related entries (UniProt Q14202)	1 ± 0.06	1.03 ± 0.076
B4E0T2 and related entries (UniProt P50542)	0.987 ± 0.048	0.958 ± 0.062
D3DQ64 and related entries (UniProt P27144)	0.937 ± 0.14	0.975 ± 0.099
C9JCW7 and related entries (UniProt Q9BVT8)	0.979 ± 0.074	0.964 ± 0.06
C9JCC6 and related entries (UniProt Q14919)	0.823 ± 0.27	0.792 ± 0.41
C9J2P0 and related entries (UniProt P51965)	0.999 ± 0.098	1.09 ± 0.08
D6RDN9 and related entries (UniProt Q15119)	1.02 ± 0.073	1.06 ± 0.025
C9JYS5 and related entries (UniProt J3QL63+J3QL47+Q9NYZ1+C9JYS5)	1.03 ± 0.18	1.05 ± 0.12
B4DTY2 and related entries (UniProt O15304)	1.08 ± 0.045	1.02 ± 0.069
ARHGAP10 (UniProt A1A4S6)	0.975 ± 0.086	0.9834 ± 0.0047
B2R5W2 and related entries (UniProt P07910)	0.884 ± 0.12	1.01 ± 0.11
B1AQP1 and related entries (UniProt P22415)	0.972 ± 0.066	0.95 ± 0.025
A6NIW2 and related entries (UniProt Q5JSL3)	1.06 ± 0.05	1.06 ± 0.061
A9Z1X7 and related entries (UniProt Q8IYB3)	1.03 ± 0.089	1.33 ± 0.12
A0A0R4J2F2|D6R9S8 and related entries (UniProt Q9NY35)	0.944 ± 0.032	0.979 ± 0.044
A8K727 and related entries (UniProt Q9HB19)	1.03 ± 0.043	1.08 ± 0.031
B2RA97 and related entries (UniProt Q9Y5N5)	1.04 ± 0.13	0.97 ± 0.074

An excerpt of these results, as labelled records.
B9EGE7 and related entries (UniProt Q8TCN5)
  NP40-soluble protein abundance (concentration: 0.1mM): 0.919 ± 0.18; NP40-soluble protein abundance (concentration: 0.5mM): 0.906 ± 0.092
UniProt A9UHW6 and related entries
  NP40-soluble protein abundance (concentration: 0.1mM): 0.923 ± 0.091; NP40-soluble protein abundance (concentration: 0.5mM): 0.897 ± 0.11
